These results are taken from patent EP1685248B1, “OXIDOREDUCTASE FROM METSCHNIKOWIA ZOBELLII” (IEP GmbH, priority 2003, dated 2005).

For this data set, the system named is rekombinante Oxidoreduktase aus Metschnikowia zobellii. The class given is biochemical.
For the molecule `CCOC(=O)CCCC[C@@H](O)CCCl` [(R)-8-Chlor-6-hydroxy-octansäureethylester], the “Enantiomerenüberschuss des erhaltenen Produkts” value was over 97%.

With `CCOC(=O)[C@H](O)c1ccccc1` [(1R)-Ethylmandelat], the “Enantiomerenüberschuss des erhaltenen Produkts” value is given as over 99%.

In the case of `CCOC(=O)[C@H](O)CCc1ccccc1` [(R)-2-Hydroxy-4-phenyl-buttersäureethylester], the “Enantiomerenüberschuss des erhaltenen Produkts” value was over 90%.

In the case of `O[C@@H](CCl)c1ccccc1` [(1R)-2-Chlor-1-phenyl-ethan-1-ol], the “Enantiomerenüberschuss des erhaltenen Produkts” value is reported as over 94%.
